Experimental data: article PMC10354075
No constants are given. Whether binding was seen depends on the method and setting. Binding seen in cells or lysates may run through a third protein. A yes stands for co-enrichment or nearness to the bait. Other partners may have been found. For some assays here: A no says only that the protein was not detected with the bait. Blank lines part the entries; values can stand above or below the molecule they belong to.

Protein sequences, listed by entry. Tags and fused reporters are not part of them.
UniProt P08631: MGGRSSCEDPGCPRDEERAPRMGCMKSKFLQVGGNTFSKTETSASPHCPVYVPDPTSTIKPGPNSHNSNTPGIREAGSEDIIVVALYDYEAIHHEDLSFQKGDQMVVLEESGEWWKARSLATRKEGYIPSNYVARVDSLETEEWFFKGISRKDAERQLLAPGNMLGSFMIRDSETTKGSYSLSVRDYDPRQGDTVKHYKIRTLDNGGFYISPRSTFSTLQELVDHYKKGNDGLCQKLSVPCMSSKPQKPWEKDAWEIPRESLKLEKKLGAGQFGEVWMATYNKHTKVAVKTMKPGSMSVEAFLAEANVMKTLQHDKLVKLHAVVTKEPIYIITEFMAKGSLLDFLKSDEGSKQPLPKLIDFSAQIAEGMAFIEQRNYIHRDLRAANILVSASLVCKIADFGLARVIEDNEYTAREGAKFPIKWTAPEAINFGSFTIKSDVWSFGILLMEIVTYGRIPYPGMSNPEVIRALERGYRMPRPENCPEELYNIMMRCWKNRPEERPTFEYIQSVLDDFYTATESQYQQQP
UniProt P06241: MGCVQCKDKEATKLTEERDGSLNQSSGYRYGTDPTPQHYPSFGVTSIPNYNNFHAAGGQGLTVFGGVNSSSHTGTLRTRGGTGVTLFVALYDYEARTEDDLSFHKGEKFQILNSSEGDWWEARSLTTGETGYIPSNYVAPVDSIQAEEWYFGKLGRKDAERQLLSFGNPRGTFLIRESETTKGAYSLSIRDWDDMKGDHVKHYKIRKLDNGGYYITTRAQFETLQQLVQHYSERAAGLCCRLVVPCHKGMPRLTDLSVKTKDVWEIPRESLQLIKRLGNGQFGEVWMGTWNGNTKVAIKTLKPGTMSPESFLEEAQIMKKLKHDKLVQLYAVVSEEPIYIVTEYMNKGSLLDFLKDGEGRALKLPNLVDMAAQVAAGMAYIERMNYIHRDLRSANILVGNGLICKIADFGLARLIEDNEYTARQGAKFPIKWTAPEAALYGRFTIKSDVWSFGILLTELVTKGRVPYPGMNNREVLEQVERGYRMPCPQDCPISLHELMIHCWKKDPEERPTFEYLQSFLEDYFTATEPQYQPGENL
UniProt O00401: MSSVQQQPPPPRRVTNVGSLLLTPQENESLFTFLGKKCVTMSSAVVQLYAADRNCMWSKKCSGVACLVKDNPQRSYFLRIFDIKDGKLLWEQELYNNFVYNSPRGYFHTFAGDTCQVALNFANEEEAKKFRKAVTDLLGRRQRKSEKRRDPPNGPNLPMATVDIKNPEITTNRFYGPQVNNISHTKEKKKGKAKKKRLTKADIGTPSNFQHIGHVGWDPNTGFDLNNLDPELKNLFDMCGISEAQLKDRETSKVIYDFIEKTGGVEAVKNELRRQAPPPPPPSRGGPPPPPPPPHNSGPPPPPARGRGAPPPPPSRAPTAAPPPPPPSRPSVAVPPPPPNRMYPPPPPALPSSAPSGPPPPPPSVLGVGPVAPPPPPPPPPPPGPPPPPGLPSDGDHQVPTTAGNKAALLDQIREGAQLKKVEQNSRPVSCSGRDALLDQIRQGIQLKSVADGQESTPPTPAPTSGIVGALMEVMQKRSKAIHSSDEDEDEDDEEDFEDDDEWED
UniProt Q2TAZ0: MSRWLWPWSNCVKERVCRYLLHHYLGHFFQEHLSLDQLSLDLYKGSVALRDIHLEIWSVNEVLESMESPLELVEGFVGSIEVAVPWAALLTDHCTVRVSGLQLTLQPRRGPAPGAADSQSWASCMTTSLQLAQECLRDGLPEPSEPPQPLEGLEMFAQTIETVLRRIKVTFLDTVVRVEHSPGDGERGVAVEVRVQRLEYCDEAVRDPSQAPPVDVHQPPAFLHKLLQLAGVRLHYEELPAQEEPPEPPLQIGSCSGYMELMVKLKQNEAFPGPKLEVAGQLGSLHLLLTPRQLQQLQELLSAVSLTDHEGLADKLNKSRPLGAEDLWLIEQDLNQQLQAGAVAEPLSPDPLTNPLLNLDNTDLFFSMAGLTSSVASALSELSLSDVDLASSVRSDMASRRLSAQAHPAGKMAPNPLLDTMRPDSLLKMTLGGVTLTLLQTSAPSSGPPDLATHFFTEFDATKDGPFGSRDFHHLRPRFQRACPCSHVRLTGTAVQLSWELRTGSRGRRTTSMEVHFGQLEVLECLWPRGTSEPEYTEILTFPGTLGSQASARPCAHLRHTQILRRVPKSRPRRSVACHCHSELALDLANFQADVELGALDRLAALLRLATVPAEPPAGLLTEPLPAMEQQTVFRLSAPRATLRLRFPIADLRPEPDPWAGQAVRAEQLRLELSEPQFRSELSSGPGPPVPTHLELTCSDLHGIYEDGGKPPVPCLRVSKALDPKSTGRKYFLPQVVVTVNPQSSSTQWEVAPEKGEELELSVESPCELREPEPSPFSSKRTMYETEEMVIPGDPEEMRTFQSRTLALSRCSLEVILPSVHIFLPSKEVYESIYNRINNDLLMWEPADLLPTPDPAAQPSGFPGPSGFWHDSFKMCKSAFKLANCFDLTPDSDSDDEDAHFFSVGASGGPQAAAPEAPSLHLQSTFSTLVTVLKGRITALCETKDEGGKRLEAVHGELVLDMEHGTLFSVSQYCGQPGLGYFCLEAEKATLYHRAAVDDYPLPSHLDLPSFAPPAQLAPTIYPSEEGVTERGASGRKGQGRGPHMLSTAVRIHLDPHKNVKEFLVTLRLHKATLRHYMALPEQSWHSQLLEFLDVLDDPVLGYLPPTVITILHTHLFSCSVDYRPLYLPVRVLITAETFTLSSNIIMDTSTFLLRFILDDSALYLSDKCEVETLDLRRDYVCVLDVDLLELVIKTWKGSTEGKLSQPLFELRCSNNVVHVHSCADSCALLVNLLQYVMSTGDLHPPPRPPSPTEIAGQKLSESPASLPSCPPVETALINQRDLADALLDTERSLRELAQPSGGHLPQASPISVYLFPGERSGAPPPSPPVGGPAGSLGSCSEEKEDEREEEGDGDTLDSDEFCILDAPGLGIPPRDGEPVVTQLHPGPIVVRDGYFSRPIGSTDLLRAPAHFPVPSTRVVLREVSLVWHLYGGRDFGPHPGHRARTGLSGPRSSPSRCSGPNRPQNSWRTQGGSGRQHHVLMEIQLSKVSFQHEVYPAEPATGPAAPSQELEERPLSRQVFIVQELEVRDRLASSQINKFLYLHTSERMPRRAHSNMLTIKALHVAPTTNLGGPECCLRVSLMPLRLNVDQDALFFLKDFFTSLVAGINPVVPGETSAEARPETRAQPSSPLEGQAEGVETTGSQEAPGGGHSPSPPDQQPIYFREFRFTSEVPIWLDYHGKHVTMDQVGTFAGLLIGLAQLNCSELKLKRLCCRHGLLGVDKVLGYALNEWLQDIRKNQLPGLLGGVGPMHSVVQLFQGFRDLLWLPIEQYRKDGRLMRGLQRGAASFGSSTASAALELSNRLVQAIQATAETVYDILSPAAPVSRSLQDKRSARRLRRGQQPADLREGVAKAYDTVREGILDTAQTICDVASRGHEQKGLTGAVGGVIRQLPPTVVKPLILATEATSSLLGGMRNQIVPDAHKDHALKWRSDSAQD
UniProt Q9HAV0: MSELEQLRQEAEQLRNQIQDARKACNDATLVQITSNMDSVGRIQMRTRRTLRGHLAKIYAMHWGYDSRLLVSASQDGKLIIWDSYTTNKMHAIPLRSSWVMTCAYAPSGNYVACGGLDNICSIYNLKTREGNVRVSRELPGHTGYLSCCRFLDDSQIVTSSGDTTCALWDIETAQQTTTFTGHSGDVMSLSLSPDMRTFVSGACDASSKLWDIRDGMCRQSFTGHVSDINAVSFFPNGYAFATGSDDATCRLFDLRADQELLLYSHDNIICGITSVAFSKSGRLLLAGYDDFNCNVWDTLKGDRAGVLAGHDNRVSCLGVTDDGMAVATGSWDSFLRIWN
UniProt Q14160: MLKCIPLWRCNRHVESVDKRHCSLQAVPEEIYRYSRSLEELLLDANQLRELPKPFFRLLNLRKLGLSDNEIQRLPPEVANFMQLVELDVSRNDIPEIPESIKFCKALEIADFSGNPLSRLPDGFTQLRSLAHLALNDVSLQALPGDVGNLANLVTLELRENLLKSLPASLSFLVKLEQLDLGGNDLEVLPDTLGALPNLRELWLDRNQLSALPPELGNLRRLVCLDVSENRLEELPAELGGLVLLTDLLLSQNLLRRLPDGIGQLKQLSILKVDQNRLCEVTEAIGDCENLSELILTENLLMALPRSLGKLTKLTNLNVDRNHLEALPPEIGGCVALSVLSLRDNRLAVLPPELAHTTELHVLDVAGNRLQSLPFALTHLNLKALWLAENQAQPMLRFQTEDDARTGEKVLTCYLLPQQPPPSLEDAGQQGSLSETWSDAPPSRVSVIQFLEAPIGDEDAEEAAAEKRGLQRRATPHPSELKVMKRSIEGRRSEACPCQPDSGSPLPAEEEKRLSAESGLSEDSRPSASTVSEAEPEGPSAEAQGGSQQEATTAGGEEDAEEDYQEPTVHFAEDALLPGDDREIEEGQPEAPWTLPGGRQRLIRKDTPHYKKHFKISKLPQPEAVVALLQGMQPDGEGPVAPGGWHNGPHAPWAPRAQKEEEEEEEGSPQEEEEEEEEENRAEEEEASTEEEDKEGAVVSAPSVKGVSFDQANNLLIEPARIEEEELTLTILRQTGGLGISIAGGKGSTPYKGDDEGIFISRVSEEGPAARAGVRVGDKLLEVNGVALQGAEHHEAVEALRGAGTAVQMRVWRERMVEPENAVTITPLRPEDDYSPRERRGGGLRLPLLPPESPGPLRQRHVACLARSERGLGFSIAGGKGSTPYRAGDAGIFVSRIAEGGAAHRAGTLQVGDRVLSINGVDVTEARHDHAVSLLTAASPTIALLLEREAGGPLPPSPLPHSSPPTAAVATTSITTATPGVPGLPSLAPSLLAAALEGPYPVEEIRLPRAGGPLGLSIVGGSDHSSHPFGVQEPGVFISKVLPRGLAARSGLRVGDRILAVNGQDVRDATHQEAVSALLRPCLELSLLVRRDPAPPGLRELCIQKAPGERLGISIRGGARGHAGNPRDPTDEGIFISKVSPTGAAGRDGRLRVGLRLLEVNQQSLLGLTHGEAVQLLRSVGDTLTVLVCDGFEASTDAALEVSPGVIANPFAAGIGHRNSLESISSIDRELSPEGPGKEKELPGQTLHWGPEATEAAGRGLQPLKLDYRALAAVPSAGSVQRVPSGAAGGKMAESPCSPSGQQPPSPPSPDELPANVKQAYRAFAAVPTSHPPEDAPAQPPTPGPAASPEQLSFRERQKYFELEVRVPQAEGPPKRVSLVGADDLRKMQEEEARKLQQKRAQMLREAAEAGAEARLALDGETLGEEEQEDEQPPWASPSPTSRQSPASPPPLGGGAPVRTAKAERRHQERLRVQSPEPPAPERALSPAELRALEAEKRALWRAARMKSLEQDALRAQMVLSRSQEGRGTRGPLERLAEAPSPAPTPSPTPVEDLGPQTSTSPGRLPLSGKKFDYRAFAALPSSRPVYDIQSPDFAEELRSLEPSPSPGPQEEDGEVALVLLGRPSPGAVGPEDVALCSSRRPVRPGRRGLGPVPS

What was measured:
[1] = target: HCK-V5 (hematopoietic cell kinase, V5-tagged, overexpressed) (UniProt P08631); experiment: affinity purification with mass spectrometry; HCK-V5, FYN-V5 or SRC-V5 overexpressed in HEK293; lysates 48 h after transfection immunoprecipitated with anti-V5-tag magnetic beads, run on PAGE gels, lanes sent for mass spectrometry; ranked by ratio of overexpression to control lane
[2] = target: FYN-V5 (V5-tagged, overexpressed) (UniProt P06241); experiment: as above

Molecule: Heat shock protein HSP 90-alpha (HSP90AA1) (from UniProt P07900 1-732)
- binding [2]: binds

Molecule: Neural Wiskott-Aldrich syndrome protein (WASL) (from UniProt O00401 1-505)
- binding [1]: binds

B1: Ras-related protein Rab-3D (RAB3D) (protein, UniProt O95716 1-219)
chain: MASAGDTQAGPRDAADQNFDYMFKLLLIGNSSVGKTSFLFRYADDSFTPAFVSTVGIDFKVKTVYRHDKRIKLQIWDTAGQERYRTITTAYYRGAMGFLLMYDIANQESFAAVQDWATQIKTYSWDNAQVILVGNKCDLEDERVVPAEDGRRLADDLGFEFFEASAKENINVKQVFERLVDVICEKMNESLEPSSSSGSNGKGPAVGDAPAPQPSSCSC
- binding [1]: binds

B2: Hsp90 co-chaperone Cdc37 (CDC37) (protein, UniProt Q16543 1-378)
chain: MVDYSVWDHIEVSDDEDETHPNIDTASLFRWRHQARVERMEQFQKEKEELDRGCRECKRKVAECQRKLKELEVAEGGKAELERLQAEAQQLRKEERSWEQKLEEMRKKEKSMPWNVDTLSKDGFSKSMVNTKPEKTEEDSEEVREQKHKTFVEKYEKQIKHFGMLRRWDDSQKYLSDNVHLVCEETANYLVIWCIDLEVEEKCALMEQVAHQTIVMQFILELAKSLKVDPRACFRQFFTKIKTADRQYMEGFNDELEAFKERVRGRAKLRIEKAMKEYEEEERKKRLGPGGLDPVEVYESLPEELQKCFDVKDVQMLQDAISKMDPTDAKYHMQRCIDSGLWVPNSKASEAKEGEEAGPGDPLLEAVPKTGDEKDVSV
- binding [2]: binds

The next lines start with the values.

- binding [1]: binds
- binding [2]: no binding
Molecule: Autophagy-related protein 2 homolog A (ATG2A) (from UniProt Q2TAZ0 1-1938)

- binding [1]: binds
Molecule: Guanine nucleotide-binding protein b4 (GNB4) (from UniProt Q9HAV0 1-340)

- binding [2]: binds
Molecule: Protein scribble homolog (SCRIB) (from UniProt Q14160 1-1655)
